# Some of the results follow. These are further read-outs of the screen, such as a control signal, another cell line or another target. No call is given for them. Most of these compounds were active or inconclusive in the main read-out, so they are no random draw. Words in brackets tell the shape of the fitted curve; partial curves, single points and poor fits give uncertain potencies.
# Assay: qHTS Assay for Lipid Storage Modulators in Drosophila S3 Cells;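 for cell number change: cells counted by Cell Tracker Red CMTPX staining in the red channel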
# Conditions: BODIPY lipid droplet fluorescence, 18-24 h; for cell number change: measured here: cell count max response, cells fed with added oleic acid
# Summary of the method: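 Drosophila S3 cells loaded with oleic acid (400 uM, as added) and compounds at several concentrations; lipid droplets imaged by 488-nm laser-scanning cytometry, 500–530 nm intensity and object ratio to cell channel. Percent activity normalized to 20 uM Triacsin C.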
# [1] = measured here: lipid fluorescence (Fed channel) AC50, cells fed with added oleic acid
# [2] = measured here: cell number channel AC50, cells fed with added oleic acid
Structure (SMILES),cell number change,AC50 [1],AC50 [2]
Cc1cc(C(=O)NCCCC(=O)O)c(C)o1,-13.6%,"23.1 µM [falling, single point]",
Cc1ccc(N/C=C(\[N+](=O)[O-])S(=O)(=O)c2ccccc2)cc1,-42.6%,"29.1 µM [falling, single point]","29.1 µM [falling, single point]"
Cc1ccc(NS(=O)(=O)c2ccccc2)c2c1CC(C)(C)O2,55.5%,,
NCCCCCc1nnc(SCc2ccc(Cl)cc2Cl)o1,46.7%,"20.6 µM [rising, partial curve]","32.6 µM [rising, single point]"
O=C(Nc1ccc(SC(F)F)cc1)C1=CC=CN2CCS(=O)(=O)N=C12,-16.9%,"1.3 µM [rising, full curve]",
Cc1ccccc1CNC(=O)CCCn1ncn2c(cc3occc32)c1=O,-26.9%,"1.46 µM [rising, partial curve]",
COc1ccccc1N(CC(=O)NC1CCCCC1)S(C)(=O)=O,41.2%,"2.06 µM [falling, full curve, poor fit]","11.6 µM [rising, partial curve, poor fit]"
CCn1nc(C)cc1C(=O)N1CCCC(CCC(=O)NCc2ccccc2F)C1 (centres undefined),-40.9%,"16.4 µM [falling, partial curve, poor fit]","18.4 µM [falling, partial curve]"
CCC(C)(C)NC(=O)C(c1ccccc1F)N(Cc1ccco1)C(=O)Cn1nnc2ccccc21 (centres undefined),-49.4%,"0.13 µM [falling, full curve, poor fit]","3.66 µM [falling, partial curve]"
OC(CN1CCN(c2ccc(C(F)(F)F)cn2)CC1)c1ccccc1 (centres undefined),-30.2%,"8.2 µM [falling, partial curve, poor fit]","8.2 µM [falling, partial curve]"
Cc1cc(C)c(S(=O)(=O)Nc2ccc(O)cc2)c(C)c1,56.7%,,"16.4 µM [rising, partial curve, poor fit]"
Cn1cc(CNCc2ccc(OC(F)(F)F)cc2)c(-c2ccc3c(c2)OCCO3)n1,-57.7%,"6.51 µM [falling, full curve]","5.8 µM [falling, partial curve]"
Cc1nc(N2CCN(C(=O)c3ccco3)CC2)c2c3c(sc2n1)CCC3,-22%,,
COc1ccc(-c2nc(NC(=O)C3CC(=O)N(c4ccc5c(c4)OCCO5)C3)sc2C)cc1 (centres undefined),-18.5%,"29.1 µM [falling, single point]",
COc1ccc(/C=C2\SC(=S)N(CCCC(=O)Nc3cccc(C(=O)O)c3)C2=O)cc1OC,7.57%,"4.61 µM [rising, single point]",
COc1ccccc1NS(=O)(=O)c1ccc2oc(SCc3ccc(C#N)cc3)nc2c1,-7.7%,"3.66 µM [rising, single point]",
CC(C)CC1C(C#N)=C(N)Oc2n[nH]c(-c3ccccc3)c21 (centres undefined),-31.6%,"13 µM [falling, partial curve]","14.6 µM [falling, single point]"
CCCN(CC1CC1)C(=O)COc1ccccc1C(=O)NCc1ccccc1,29.8%,"6.51 µM [rising, single point]","0.103 µM [rising, full curve, poor fit]"
Cc1ccc(-c2csc3ncnc(N4CCN(C)CC4)c23)cc1C,-0.777%,,
CC(C)N(C(=O)c1ccc(-c2ccccc2F)cc1)C(C)C,-11.5%,"0.116 µM [falling, partial curve, poor fit]",

# Looked up by compound from the entries so far:
Structure (SMILES),cell number change,AC50 [1],AC50 [2]
Cn1cc(CNCc2ccc(OC(F)(F)F)cc2)c(-c2ccc3c(c2)OCCO3)n1,-57.7%,"6.51 µM [falling, full curve]","5.8 µM [falling, partial curve]"
Cc1cc(C(=O)NCCCC(=O)O)c(C)o1,-13.6%,"23.1 µM [falling, single point]",
OC(CN1CCN(c2ccc(C(F)(F)F)cn2)CC1)c1ccccc1 (centres undefined),-30.2%,"8.2 µM [falling, partial curve, poor fit]","8.2 µM [falling, partial curve]"
COc1ccccc1NS(=O)(=O)c1ccc2oc(SCc3ccc(C#N)cc3)nc2c1,-7.7%,"3.66 µM [rising, single point]",

# Next entries follow.

Structure (SMILES),cell number change,AC50 [1],AC50 [2]
Cc1nn2c(NCCCN3CCOCC3)c3c(nc2c1-c1ccccc1)CCC3,-17.2%,"5.8 µM [rising, full curve]",
CC(C)(C)NS(=O)(=O)c1ccc(CCC(=O)NCc2cccnc2)cc1,55.1%,"29.1 µM [rising, single point]","32.6 µM [rising, single point]"
NC(=S)N/N=C/c1ccc2c(c1)OCCO2,2.1%,,
N#CC1=C(N)NC(SCc2ccc(Cl)cc2)=C(C#N)C12CCCCC2,44.5%,"6.51 µM [rising, single point]","2.31 µM [rising, full curve]"
Cc1ccc(N2CN(S(=O)(=O)c3cccc([N+](=O)[O-])c3)c3nc4ccccc4nc32)cc1,22.2%,"29.1 µM [rising, single point]",
Cc1ccc(OCC(=O)NCCCNC(=O)COc2ccc(C)cc2)cc1,4.97%,"29.1 µM [falling, single point]",
CCOc1ccc(S(=O)(=O)NCCSc2ccccc2)cc1,10.3%,,
COc1ccc(/C=C/c2noc(-c3ccccc3OC(C)=O)n2)cc1,-8.45%,,
O=C(Nc1ccc([N+](=O)[O-])cn1)C1CCCCC1,35.4%,"29.1 µM [rising, single point]","25.9 µM [rising, single point]"
NS(=O)(=O)c1cc(Cl)c(Cl)c(S(N)(=O)=O)c1,-24.8%,"6.51 µM [falling, partial curve]",
COc1ccccc1/C=C/CN1CCC(Oc2ccc(C(=O)N3CCCCC3)cc2)CC1,-11.4%,"29.1 µM [rising, single point]",
Cc1cccc(COCC(Cc2ccccc2)N2CCN(C(=O)c3cccc(C)c3)CCC2=O)c1 (centres undefined),43.5%,"6.51 µM [rising, single point]","29.1 µM [rising, single point]"
Cn1c2ccccc2c2cnn(CC(=O)Nc3ccc(F)cc3F)c(=O)c21,-1.22%,"4.11 µM [rising, full curve]",
COc1cccc(Nc2nc(-c3cccs3)nc3ccccc23)c1,19.9%,"0.731 µM [rising, partial curve, poor fit]",
O=C(CCc1nnc(CCCCc2ccccc2)o1)NC1CCCC1,34.5%,,
c1ccc(OCCOCCN2CCc3ccccc3C2)cc1,17%,"4.61 µM [rising, partial curve, poor fit]",
COc1ccccc1NC(=O)Cn1c2ccccc2c2nc3n(c(=O)c21)CCS3,31.9%,"4.11 µM [rising, full curve, poor fit]","0.0731 µM [rising, full curve, poor fit]"
COc1cccc(/C=N/NC(=O)N/N=C/c2cccc(OC)c2O)c1O,-16.4%,"29.1 µM [falling, single point]",
O=[N+]([O-])c1cc(/C=N/N2CCN(c3ccccc3)CC2)ccc1Cl,19.9%,"29.1 µM [rising, single point]",
COc1ccc(S(=O)(=O)N2CCOC2CNC(=O)C(=O)NCc2ccncc2)cc1OC (centres undefined),1.78%,,

Structure (SMILES),cell number change,AC50 [1],AC50 [2]
O=C(O)C1CCCN1C(=O)Nc1ccc(Cl)cc1 (centres undefined),22.1%,"6.51 µM [rising, partial curve]",
CSc1ccccc1NC(=O)CN(C)C(=O)C1CCN(C(=O)Nc2ccccc2)CC1,26.1%,,
CCc1ccc(C(C(=O)NC2CCCC2)N(C(=O)c2csnn2)C2CC2)cc1 (centres undefined),-16.7%,,
C=CCN(CC=C)C(=S)NC(=O)c1ccc(-c2ccccc2)cc1,5.65%,"6.51 µM [rising, single point]","6.51 µM [rising, partial curve, poor fit]"
O=[N+]([O-])c1cccc(CN2C[C@@]34C=C[C@@H](C[C@@H]3S2(=O)=O)O4)c1,,"20.6 µM [rising, single point]",
CCn1c(O)c(C=NCc2ccccc2)sc1=S,-5.07%,"0.731 µM [falling, full curve, poor fit]",
Cc1ccccc1OCC(=O)Nc1cccc(NC(=O)c2ccco2)c1,-19.3%,,
COc1ccc(Cn2nnnc2CN2CCc3ccccc3C2)cc1,-6.25%,"29.1 µM [rising, single point]",
COc1ccc2c(c1)OC13CCCCC1C2C(C(=O)c1ccccc1)C(=O)N3 (centres undefined),4.09%,"16.4 µM [falling, partial curve]",
Cc1c(C(=O)N2CCN(C(=O)c3ccccc3)CC2)oc2ccc(F)cc12,,"18.4 µM [falling, partial curve, poor fit]",
NC(=O)NC(=O)CN1c2cccc3cccc(c23)S1(=O)=O,23.5%,"0.58 µM [rising, single point]",
C/C(O)=c1/cnc2nc3ccccc3n2c1=O,-14.5%,,"0.00517 µM [falling, full curve, poor fit]"
Cc1cc(=O)oc2c(C)c(OCC(=O)NCc3ccccn3)ccc12,-11%,,"2.59 µM [falling, partial curve, poor fit]"
Cc1ccc(O)c(NC2=C(Cl)C(=O)N(Cc3ccccc3)C2=O)c1,-8.28%,,
COc1ccc(C(=O)NN(C)c2nc(-c3ccccc3)cc(C)c2S(C)(=O)=O)cc1,47.3%,,"1.46 µM [rising, full curve]"
O=C(COC(=O)c1cc[n+]([O-])cc1)Nc1ccc([N+](=O)[O-])cc1,11.9%,,
Cc1ccc(Cl)cc1N1CCN(Cc2cc3c(cc2O)CCC3)CC1,,"3.26 µM [rising, partial curve]",
CCCn1c(SCC(=O)NCc2ccc(Cl)cc2)n[nH]c1=O,-29.4%,"29.1 µM [falling, single point]",
CCC(=O)NCCNC(=O)c1c(SC)nsc1SC,16.5%,"29.1 µM [rising, single point]",
Cc1cccc(-n2ncc3c(N4CCc5ccccc54)ncnc32)c1,,"0.082 µM [rising, full curve, poor fit]","6.51 µM [falling, single point]"

# Reference: PubChem BioAssay AID2685 (National Center for Advancing Translational Sciences (NCATS), 2010)
